Test results from patent publication CN108383911A.
No constants are given. Whether binding was seen depends on the method and setting. Some binding calls cover weakened binding; strength is not graded here.

Sequences of proteins named here, by UniProt entry; tags and fusion partners are left off. Residues count along the entry.
UniProt P08637, residues 17-254: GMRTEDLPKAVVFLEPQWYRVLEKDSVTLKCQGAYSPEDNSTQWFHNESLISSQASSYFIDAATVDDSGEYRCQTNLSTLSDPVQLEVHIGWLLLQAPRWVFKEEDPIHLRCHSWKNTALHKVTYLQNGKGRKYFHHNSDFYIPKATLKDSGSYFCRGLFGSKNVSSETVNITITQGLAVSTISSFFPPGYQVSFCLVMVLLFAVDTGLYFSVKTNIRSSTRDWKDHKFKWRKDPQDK

How the values were obtained:
[1] = target: NK细胞表面抗原CD16a, on NK cells (UniProt P08637); experiment: flow cytometry on NK cells (legend of Figure 4)
[2] = target: NK细胞表面抗原CD16a, on NK cells (UniProt P08637); experiment: flow cytometry, 10 nM bispecific antibody on 1x10^6 NK cells, biotin goat anti-human IgG F(ab')2 + PE-streptavidin

B1: GPC3-CD16A双特异性抗体 (bispecific antibody)
chain: DVVMTQSPLSLPVTPGEPASISCRSSQSLVHSNGNTYLHWYLQKPGQSPQLLIYKVSNRFSGVPDRFSGSGSGTDFTLKISRVEAEDVGVYYCSQNTHVPPTFGQGTKLEIKGGGGSQVTLRESGPALVKPTQTLTLTCTFSGFSLSTSGMGVGWIRQPPGKALEWLAHIWWDDDKRYNPALKSRLTISKDTSKNQVVLTMTNMDPVDTATYYCARINPAWFAYWGQGTLVTVSSGQPREPQVYTLPPSREEMTKNQVSLTCLVKGFYPSDIAVEWESNGQPENNYKTTPPVLDSDGSFFLYSKLTVDKSRWQQGNVFSCSVMHEALHNHYTQKSLSLSPGKDTVLTQSPASLAVSLGQRATISCKASQSVDFDGHSFMNWYQQKPGQPPKLLIYTTSNLESGIPASFSASGSGTDFTLNIHPVEEEDTATYYCQQSNEDPYTFGGGTKLEIKGGGGSQVTLRESGPALVKPTQTLTLTCTFSGFSLSTSGMGVGWIRQPPGKALEWLAHIWWDDDKRYNPALKSRLTISKDTSKNQVVLTMTNMDPVDTATYYCARINPAWFAYWGQGTLVTVSS
[1]
  binding: binds
[2]
  binding: binds
